Experimental data reported in the supplement of paper PMC4604168 (melanoma cell lines).
The list shows a part of the results. Many values rest on one well or one pass, so single values are uncertain.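 Imaging used 1,536-well plates; nuclei positive for cleaved PARP by antibody were divided by total DNA-stained nuclei to yield the apoptosis fraction. Doses for screening kept most cells viable, and cell lines differ markedly in resting and induced cleaved-PARP levels.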

What was measured:
Test in all cases: cleaved PARP positive nuclei fraction relative to DMSO control; melanoma cells; higher = more apoptosis
Details in all cases: library dose: low library concentration; 72 h
CBRC034 = system: CBRC034 (line from a melanoma biopsy)
COLO792 = system: COLO792
COLO800 = system: COLO800
COLO829 = system: COLO829
G361 = system: G361
IPC-298 = system: IPC-298
IST-MEL1 = system: IST-MEL1
LB2518-MEL = system: LB2518-MEL
LOXIMVI = system: LOXIMVI
MZ2-MEL = system: MZ2-MEL
MeWo = system: MeWo
RPMI7951 = system: RPMI7951
RVH-421 = system: RVH-421
SkMel28 = system: SkMel28
SkMel30 = system: SkMel30
SkMel5 = system: SkMel5
UACC257 = system: UACC257
UACC62 = system: UACC62

Compound	cleaved PARP positive nuclei fraction (CBRC034)	cleaved PARP positive nuclei fraction (COLO792)	cleaved PARP positive nuclei fraction (COLO800)	cleaved PARP positive nuclei fraction (COLO829)	cleaved PARP positive nuclei fraction (G361)	cleaved PARP positive nuclei fraction (IPC-298)	cleaved PARP positive nuclei fraction (IST-MEL1)	cleaved PARP positive nuclei fraction (LB2518-MEL)	cleaved PARP positive nuclei fraction (LOXIMVI)	cleaved PARP positive nuclei fraction (MZ2-MEL)	cleaved PARP positive nuclei fraction (MeWo)	cleaved PARP positive nuclei fraction (RPMI7951)	cleaved PARP positive nuclei fraction (RVH-421)	cleaved PARP positive nuclei fraction (SkMel28)	cleaved PARP positive nuclei fraction (SkMel30)	cleaved PARP positive nuclei fraction (SkMel5)	cleaved PARP positive nuclei fraction (UACC257)	cleaved PARP positive nuclei fraction (UACC62)
CO[C@@H]1[C@H](N(C)C(=O)c2ccccc2)C[C@H]2O[C@]1(C)n1c3ccccc3c3c4c(c5c6ccccc6n2c5c31)C(=O)NC4 [Midostaurin] + COc1ccc2c(c1)CCC1C2CCC2(C)C(NCCCCCCN3C(=O)C=CC3=O)CCC12 [U73122] (first compound 0.08 µM, partner dose 0.4 µM)	57%	95.9%	37.4%	154%	233%	79.9%	45.7%	72.9%	123%	79.3%	271%	43.4%	38%	204%	20.8%	179%	84.7%	175%
Cc1ccc(NC(=O)c2cccc(N(C)C)c2)cc1NC(=O)c1ccc(O)cc1 + O=S(=O)(c1ccccc1)N(CC(F)(F)F)c1ccc(C(O)(C(F)(F)F)C(F)(F)F)cc1 [T0901317] (first compound 2 µM, partner dose 1.4 µM)	52.6%	55.3%	99.6%	171%	164%	74.5%	31.1%	177%	41%	191%	108%	23.4%	48.5%	125%	15.9%	62.2%	60.6%	53.9%
Nc1cccc2c1CN(C1CCC(=O)NC1=O)C2=O (configuration not stated) [lenalidomide] + O=C(O)C(=O)Nc1sc2c(c1C(=O)O)CCNC2 [TCS401] (first compound 1 µM, partner dose 1.66667 µM)	513%	109%	106%	138%	38%	79.5%	44%	78.3%	65.4%	57.3%	130%	249%	82.5%	70.2%	50%	112%	115%	67.2%
COc1cc(Nc2ncc(F)c(Nc3ccc4c(n3)NC(=O)C(C)(C)O4)n2)cc(OC)c1OC [Tamatinib] + Cc1cc([N+](=O)[O-])ccc1NS(=O)(=O)c1cc(Cl)ccc1Cl [FH535] (first compound 0.4 µM, partner dose 1 µM)	349%	200%	214%	97.3%	109%	163%	127%	105%	104%	45.4%	31.3%	93.9%	197%	187%	106%	67.4%	318%	49.1%
Cc1ccc(NC(=O)c2cccc(N(C)C)c2)cc1NC(=O)c1ccc(O)cc1 + O=C1NC(=O)/C(=C/c2ccc(-c3ccc(F)cc3O)o2)S1 [AS252424] (first compound 2 µM, partner dose 1 µM)	81.5%	97.4%	80.3%	65.3%	52.5%	112%	124%	88%	61%	74.6%	30.3%	86.1%	54.7%	93.3%	329%	28.5%	117%	268%
COc1cc(Nc2ncc(F)c(Nc3ccc4c(n3)NC(=O)C(C)(C)O4)n2)cc(OC)c1OC [Tamatinib] + CCN(CC)CCCCNc1ncc2cc(-c3cc(OC)cc(OC)c3)c(NC(=O)NC(C)(C)C)nc2n1 [PD173074] (first compound 0.4 µM, partner dose 0.1 µM)	92.5%	150%	178%	107%	81.6%	72.4%	138%	100%	43%	171%	110%	27.5%	96.9%	153%	17.4%	97.9%	194%	181%
CO[C@@H]1[C@H](N(C)C(=O)c2ccccc2)C[C@H]2O[C@]1(C)n1c3ccccc3c3c4c(c5c6ccccc6n2c5c31)C(=O)NC4 [Midostaurin] + COC(=O)c1sccc1S(=O)(=O)Nc1ccc(Nc2ccccc2)cc1OC [GSK0660] (first compound 0.08 µM, partner dose 1 µM)	59.7%	77.1%	89.3%	79.2%	70.2%	43.3%	29.7%	83.5%	34.8%	127%	28.5%	96.7%	91.7%	84.9%	31%	33.8%	117%	153%
CO[C@@H]1[C@H](N(C)C(=O)c2ccccc2)C[C@H]2O[C@]1(C)n1c3ccccc3c3c4c(c5c6ccccc6n2c5c31)C(=O)NC4 [Midostaurin] + COc1cc(N2CCC(N3CCN(C)CC3)CC2)ccc1Nc1ncc(Cl)c(Nc2ccccc2S(=O)(=O)C(C)C)n1 [NVP-TAE684] (first compound 0.08 µM, partner dose 0.08 µM)	93.2%	152%	142%	124%	135%	127%	257%	207%	78.5%	99.2%	83.1%	99.6%	66.4%	39%	57.2%	95.5%	69.7%	34.6%
O=C(CCCCCCC(=O)Nc1ccccc1)NO [vorinostat] + Oc1cc(-c2nc(-c3ccccc3)[nH]c2-c2ccncc2)ccc1Cl [L779450] (first compound 0.08 µM, partner dose 0.2 µM)	92.2%	147%	113%	95.9%	177%	193%	236%	191%	59.3%	250%	101%	85%	92.4%	203%	61.6%	122%	128%	52.8%

Record cards, as listed above. Values in the order: cleaved PARP positive nuclei fraction (CBRC034)	cleaved PARP positive nuclei fraction (COLO792)	cleaved PARP positive nuclei fraction (COLO800)	cleaved PARP positive nuclei fraction (COLO829)	cleaved PARP positive nuclei fraction (G361)	cleaved PARP positive nuclei fraction (IPC-298)	cleaved PARP positive nuclei fraction (IST-MEL1)	cleaved PARP positive nuclei fraction (LB2518-MEL)	cleaved PARP positive nuclei fraction (LOXIMVI)	cleaved PARP positive nuclei fraction (MZ2-MEL)	cleaved PARP positive nuclei fraction (MeWo)	cleaved PARP positive nuclei fraction (RPMI7951)	cleaved PARP positive nuclei fraction (RVH-421)	cleaved PARP positive nuclei fraction (SkMel28)	cleaved PARP positive nuclei fraction (SkMel30)	cleaved PARP positive nuclei fraction (SkMel5)	cleaved PARP positive nuclei fraction (UACC257)	cleaved PARP positive nuclei fraction (UACC62)
COc1cc(Nc2ncc(F)c(Nc3ccc4c(n3)NC(=O)C(C)(C)O4)n2)cc(OC)c1OC [Tamatinib] + Cc1cc([N+](=O)[O-])ccc1NS(=O)(=O)c1cc(Cl)ccc1Cl [FH535] (first compound 0.4 µM, partner dose 1 µM) is entered as 349%	200%	214%	97.3%	109%	163%	127%	105%	104%	45.4%	31.3%	93.9%	197%	187%	106%	67.4%	318%	49.1%
CO[C@@H]1[C@H](N(C)C(=O)c2ccccc2)C[C@H]2O[C@]1(C)n1c3ccccc3c3c4c(c5c6ccccc6n2c5c31)C(=O)NC4 [Midostaurin] + COC(=O)c1sccc1S(=O)(=O)Nc1ccc(Nc2ccccc2)cc1OC [GSK0660] (first compound 0.08 µM, partner dose 1 µM) is entered as 59.7%	77.1%	89.3%	79.2%	70.2%	43.3%	29.7%	83.5%	34.8%	127%	28.5%	96.7%	91.7%	84.9%	31%	33.8%	117%	153%
